Measured values: the supplement of paper PMC9744312
Where a name gives a salt, the structure may show the parent alone. Some of the results follow. Single values of this set are uncertain.

test system: Peyronie's disease tunica albuginea primary fibroblasts; test: cell viability (DRAQ5 nuclear stain) relative to TGF-beta1-only control; higher = more viable cells; conditions: 10 µM; TGF-beta1 10 ng/mL; 72 h

Row | SMILES | cell viability [%]
1 | CC(C)(C)Cn1c(N)nc2ccc(-c3[nH]c(C(C)(C)C)nc3-c3ccc(F)cc3)nc21 | 86.4
2 | O=C(NC1CCN(CCCCC2(C(=O)NCC(F)(F)F)c3ccccc3-c3ccccc32)CC1)c1ccccc1-c1ccc(C(F)(F)F)cc1 [Lomitapide] | 40.4
3 | O=C(NC1CCN(CCCCC2(C(=O)NCC(F)(F)F)c3ccccc3-c3ccccc32)CC1)c1ccccc1-c1ccc(C(F)(F)F)cc1 [Lomitapide Mesylate] | 50.4
4 | CCOC(=O)c1ccc(OC(=O)CCCCCNC(=N)N)cc1 [Gabexate Mesylate] | 93.7
5 | COc1cccc(-c2ccc(NC(=O)C3=C(C(=O)O)CCC3)c(F)c2)c1 [Vidofludimus] | 79.6
6 | COc1cc(/C=C/C(=O)N2CCN(CC(=O)N3CCCC3)CC2)cc(OC)c1OC [Cinepazide maleate] | 86.7
7 | Nc1ncn([C@@H]2O[C@H](CO)[C@@H](O)[C@H]2O)c(=O)n1 [Azacitidine] | 72.5
8 | CC(COc1ccccc1)N(CCCl)Cc1ccccc1 (stereo unspecified) [Phenoxybenzamine HCl] | 70.1
9 | COc1ccc(CN(CCN(C)C)c2ccccn2)cc1 [Pyrilamine Maleate] | 85.7
10 | CCCNC(C)C(=O)Nc1ccccc1C (stereo unspecified) [Prilocaine] | 93.1
11 | CCCNC(C)C(=O)Nc1ccccc1C (stereo unspecified) [Prilocaine hydrochloride] | 74.4
12 | CCCCC[C@H](O)/C=C/[C@@H]1[C@@H](C/C=C\CCCC(=O)O)[C@@H](O)C[C@H]1O [Dinoprost tromethamine] | 83.7
13 | CC(=O)c1ccc(S(=O)(=O)NC(=O)NC2CCCCC2)cc1 [Acetohexamide] | 101
14 | Cc1c(-c2ccnn2C)cc(C(=O)NCc2ccc(S(C)(=O)=O)cn2)c(=O)n1-c1cccc(C(F)(F)F)c1 [Alvelestat (AZD9668)] | 88.6
15 | CCOC(=O)[C@H](CCc1ccccc1)N[C@H]1CCc2ccccc2N(CC(=O)O)C1=O [Benazepril HCl] | 97.4
16 | COC1=C(OC)C(=O)C(CCCCCCCCCCO)=C(C)C1=O [Idebenone] | 90.3
17 | NCCCC[C@H](N[C@@H](CCc1ccccc1)C(=O)O)C(=O)N1CCC[C@H]1C(=O)O [Lisinopril] | 89.4
18 | O=C(Nc1cccc2c(=O)cc(-c3nnn[nH]3)oc12)c1ccc(OCCCCc2ccccc2)cc1 [Pranlukast] | 84.5
19 | CC(C)(C)NC[C@H](O)COc1nsnc1N1CCOCC1 [Timolol Maleate] | 70.2
20 | CO/N=C(\C(=O)N[C@@H]1C(=O)N2C(C(=O)O)=C(CSc3nc(=O)c(O)nn3C)CS[C@H]12)c1csc(N)n1 [Ceftriaxone Sodium] | 26.3
21 | CO/N=C(\C(=O)N[C@@H]1C(=O)N2C(C(=O)O)=C(CSc3nc(=O)c(O)nn3C)CS[C@H]12)c1csc(N)n1 [Ceftriaxone Sodium Trihydrate] | 98.9
22 | CO[C@@H]1[C@@H](OC(N)=O)[C@@H](O)[C@H](Oc2ccc3c(O)c(NC(=O)c4ccc(O)c(CC=C(C)C)c4)c(=O)oc3c2C)OC1(C)C [Novobiocin Sodium] | 86.2
23 | C=C=CCNC(=O)c1ccc(F)cc1 [Diastase] | 86.3

Another view of some results above.
O=C(NC1CCN(CCCCC2(C(=O)NCC(F)(F)F)c3ccccc3-c3ccccc32)CC1)c1ccccc1-c1ccc(C(F)(F)F)cc1 [Lomitapide]
  cell viability [%]: 40.4
CO/N=C(\C(=O)N[C@@H]1C(=O)N2C(C(=O)O)=C(CSc3nc(=O)c(O)nn3C)CS[C@H]12)c1csc(N)n1 [Ceftriaxone Sodium Trihydrate]
  cell viability [%]: 98.9

(cont.)

Row | SMILES | cell viability [%]
24 | CCN1CCN(C(=O)N[C@@H](C(=O)N[C@@H]2C(=O)N3[C@@H]2SC(C)(C)[C@@H]3C(=O)O)c2ccccc2)C(=O)C1=O [Piperacillin Sodium] | 86.5
25 | CCCC(=O)Nc1ncnc2c1ncn2[C@@H]1O[C@@H]2COP(=O)(O)O[C@H]2[C@H]1OC(=O)CCC [Dibutyryl-cAMP (Bucladesine)] | 88.9
26 | CN(C)CCC[C@@]1(c2ccc(F)cc2)OCc2cc(C#N)ccc21 [Escitalopram Oxalate] | 89.9
27 | CN1CCCC(n2nc(Cc3ccc(Cl)cc3)c3ccccc3c2=O)CC1 (stereo unspecified) [Azelastine HCl] | 84.3
28 | CN1CCCCC1CCN1c2ccccc2Sc2ccc([S+](C)[O-])cc21 (stereo unspecified) [Mesoridazine Besylate] | 103
29 | NC(=O)N/N=C/c1ccc([N+](=O)[O-])o1 [Nitrofural] | 87
30 | CC(C)C[C@H](NC(=O)[C@H](CCc1ccccc1)NC(=O)CN1CCOCC1)C(=O)N[C@@H](Cc1ccccc1)C(=O)N[C@@H](CC(C)C)C(=O)[C@@]1(C)CO1 [Carfilzomib (PR-171)] | 30.6
31 | N=C(N)NC(=N)N1CCOCC1 [Moroxydine HCl] | 89.5
32 | CC(=O)Oc1cccc2c1C(=O)c1c(OC(C)=O)cc(C(=O)O)cc1C2=O [Diacerein] | 87.7
33 | N[C@H]1C(O)O[C@H](CO)[C@@H](O)[C@@H]1O (stereo partly specified) [Glucosamine sulfate] | 85.9
34 | N[C@H]1C(O)O[C@H](CO)[C@@H](O)[C@@H]1O (stereo partly specified) [Glucosamine hydrochloride] | 86.9
35 | CN(C)CCc1c[nH]c2ccc(Cn3cncn3)cc12 [Rizatriptan Benzoate] | 91.8
36 | OCCN1CCN(CCCN2c3ccccc3Sc3ccc(Cl)cc32)CC1 [Perphenazine] | 79
37 | Nc1ccc(S(=O)(=O)c2ccc(N)cc2)cc1 [Dapson] | 82.7
38 | CC1(C)OC(=O)NC1=O [5,5-Dimethyloxazolidine-2,4-dione] | 86
39 | Nc1ccc(C(=O)NCC(=O)O)cc1 [Sodium 4-aminohippurate Hydrate] | 91.2
40 | COc1ccc(NS(=O)(=O)c2ccc(N)cc2)nn1 [Sulfamethoxypyridazine] | 85.4
41 | CCC[C@H](N[C@@H](C)C(=O)N1[C@H](C(=O)O)C[C@@H]2CCCC[C@@H]21)C(=O)OCC [Perindopril Erbumine] | 92.7
42 | CCCC(=O)O[C@]1(C(=O)COC(C)=O)CC[C@H]2[C@@H]3C[C@H](F)C4=CC(=O)C=C[C@]4(C)[C@@]3(F)[C@@H](O)C[C@@]21C [Difluprednate] | 85.6
43 | Cn1ncc(Cl)c1-c1cc(C(=O)N[C@H](CN)Cc2ccc(F)c(F)c2)oc1Cl | 63.4
44 | O=C(CCCN1CC=C(n2c(=O)[nH]c3ccccc32)CC1)c1ccc(F)cc1 [Droperidol] | 104
45 | Oc1c(I)cc(I)c2cccnc12 [Diiodohydroxyquinoline] | 60.9
46 | C#CCN(C)Cc1ccccc1 [Pargyline hydrochloride] | 85.7
